These are yes or no findings as the source states them, for the method shown. Some results given as binding are weak or reduced against the parent protein; the word gives no strength. For some of these results: Tags and fused reporters may be left off the sequences shown.
What was measured:
[1] = target: T1, recombinant Sp17 protein (human) (UniProt Q15506); experiment: western blot of recombinant Sp17 protein
T1 sequence (looked up): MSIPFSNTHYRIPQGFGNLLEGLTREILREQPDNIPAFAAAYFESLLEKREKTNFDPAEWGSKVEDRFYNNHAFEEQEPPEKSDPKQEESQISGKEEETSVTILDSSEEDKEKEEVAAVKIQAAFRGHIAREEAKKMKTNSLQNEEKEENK

[2] = target: T1, recombinant Sp17 protein (human); experiment: western blot of Sp17 protein
[3] = target: T2, recombinant 6His-Sp17 protein (human) (UniProt Q15506); experiment: surface plasmon resonance (Biacore T200), 6His-Sp17 at 6.25 to 300 nM over chAB2
T2 sequence (looked up): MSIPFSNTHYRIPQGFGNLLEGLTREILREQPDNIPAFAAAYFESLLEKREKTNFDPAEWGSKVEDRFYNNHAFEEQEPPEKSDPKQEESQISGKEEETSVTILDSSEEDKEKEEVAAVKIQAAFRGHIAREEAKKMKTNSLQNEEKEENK

[4] = target: T1, recombinant Sp17 protein (human); experiment: western blot of Sp17 protein on SDS-PAGE, detected with chAB2
[5] = target: T1, recombinant Sp17 protein (human); experiment: ELISA of Fab phage display clones
[6] = target: T1, recombinant Sp17 protein (human); experiment: western blot
[7] = target: T1, recombinant Sp17 protein (human); experiment: western blot of Sp17 protein and a tumor cell lysate

B1: mouse-human chimeric anti-Sp17 IgG2a/kappa monoclonal antibody chAB2 (antibody, V domains shown, not shown: a dimerising Fc or GST)
VH: QVQLQQSGAEVKKPGSSVKVSCKASGGTFSSYAISWVRQAPGQGLEWMGRIIPILGIANYAQKFQGRVTITADKSTSTAYMELSSLRSEDTAVYYCARPSEEVVAAYGAFDIWGQGTTVTVSS
VL: EIVLTQSPLSLPVRPGEPASISCRASQSLLRSDGFNYLDWYLQKPGQSPQLLVYLGSNRASGVPDRFSGSGSGTDFTLKISRVEAEDVGVYYCMQAVQTPYIFGQGTKLEIK
For B1, the binding [1] was “binds”, the binding [2] was “binds” and the binding [3] was “binds”. The binding [4] was “binds”.

B2: anti-Sp17 Fab (best-performing clone from the Fab phage display library) (Fab, V domains shown)
VH: QVQLQQSGAEVKKPGSSVKVSCKASGGTFSSYAISWVRQAPGQGLEWMGRIIPILGIANYAQKFQGRVTITADKSTSTAYMELSSLRSEDTAVYYCARPSEEVVAAYGAFDIWGQGTTVTVSS
VL: EIVLTQSPLSLPVRPGEPASISCRASQSLLRSDGFNYLDWYLQKPGQSPQLLVYLGSNRASGVPDRFSGSGSGTDFTLKISRVEAEDVGVYYCMQAVQTPYIFGQGTKLEIK
In the case of B2, the binding [5] is reported as “binds”.

B3: human anti-Sp17 IgG4/kappa monoclonal antibody SP17-AB2 (antibody, V domains shown)
VH: QVQLQQSGAEVKKPGSSVKVSCKASGGTFSSYAISWVRQAPGQGLEWMGRIIPILGIANYAQKFQGRVTITADKSTSTAYMELSSLRSEDTAVYYCARPSEEVVAAYGAFDIWGQGTTVTVSS
VL: EIVLTQSPLSLPVRPGEPASISCRASQSLLRSDGFNYLDWYLQKPGQSPQLLVYLGSNRASGVPDRFSGSGSGTDFTLKISRVEAEDVGVYYCMQAVQTPYIFGQGTKLEIKR
With B3 the binding [6] was “binds” and the binding [7] was “binds”.
